Results on one substance are retold here after paper PMC3937215.

The target in the assay is cyclin-dependent-kinase 2 (mouse (endogenous in testis)) (UniProt P97377). The assay is described as follows: co-IP; pre-cleared lysate incubated with mouse anti-CDK2 (D-12) or IgG control, 4 h, 4°C; protein A agarose beads overnight; washed four times in 20 mM Tris pH 8.0, 150 mM NaCl, 0.1% NP40; blotted for cyclin E1 and cyclin E2.

No constants are given. Whether binding was seen depends on the method and setting. Binding seen in cells or lysates may run through a third protein. Some entries that bind do so weakly or less than the wild type.

Turning to cyclin E2 (from UniProt Q9Z238 1-404), the binding entry is on record as “binds”.
